This passage reports cell number change and AC50 results from PubChem BioAssay AID2685 (National Center for Advancing Translational Sciences (NCATS), 2010).

The nature of the experiment: qHTS Assay for Lipid Storage Modulators in Drosophila S3 Cells.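 For cell number change: cells counted by Cell Tracker Red CMTPX staining in the red channel.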 The settings on record: BODIPY lipid droplet fluorescence, 18-24 h; for cell number change: measured here: cell count max response, cells fed with added oleic acid. The method, boiled down:
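Drosophila S3 cells loaded with oleic acid (400 uM, as added) and compounds at several concentrations; lipid droplets imaged by 488-nm laser-scanning cytometry, 500–530 nm intensity and object ratio to cell channel. Percent activity normalized to 20 uM Triacsin C.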
A general note: qHTS replaces the single test concentration by a dilution series.

[1] abbreviates: measured here: lipid fluorescence (Fed channel) AC50, cells fed with added oleic acid.
[2] abbreviates: measured here: cell number channel AC50, cells fed with added oleic acid.

This is one part of the list. The main result of the screen is listed elsewhere. These columns were measured beside it and carry no call. Compounds called inactive in the main read-out are mostly missing here. Potencies come from curve fits of mixed quality, noted in brackets.

Broadly, the AC50 is the concentration at which the activity in the assay is half-maximal. High values mean weaker potency, low ones greater potency. Regarding `Cn1c(=O)[nH]c(=O)c2c1nc(CN1CCN(c3ccc(F)cc3)CC1)n2CCc1ccccc1`, the cell number change was found to be 14.8%. Further, under setting [1], the AC50 is 16.4 µM [rising, partial curve, poor fit].
Turning to `CCN(CC)C(=O)c1cccc(NC(=O)CC23CC4CC(CC(C4)C2)C3)c1`, the half-maximal activity concentration (AC50) under setting [1] is 4.11 µM [falling, partial curve].
Take `NS(=O)(=O)c1ccc(CNC(=O)c2scc3c2CCCC3)cc1`: the cell number change is -31.1%. The AC50 under setting [2] is 14.6 µM [falling, single point].
For the compound `CCCS(=O)(=O)N1CCN(c2ccccc2F)CC1`, the AC50 under setting [2] was 0.58 µM [falling, single point].
Regarding `COc1ccccc1NC(=O)CCN1C(=O)/C(=C/c2cc(OC)c(OC)c(OC)c2)SC1=S`, the cell number change worked out at 2.55%. Moreover, under setting [1], the AC50 is 29.1 µM [falling, single point].
`CC(C)N(Cc1nc(-c2ccccc2)no1)C(=O)c1ccc(Br)o1`: the cell number change was -5.95%. The AC50 under setting [1] was 0.731 µM [rising, full curve].
Consider `Cc1c(OCC(=O)N(C)C)ccc2c3c(c(=O)oc12)CCCCC3`, for which the cell number change was found to be 104%. Besides, the AC50 under setting [2] is 29.1 µM [rising, single point]. In addition, under setting [1], the AC50 is 29.1 µM [rising, partial curve].
Take `CC(C)(C)c1ccc(C(=O)NNC(=O)Cc2ccccc2)cc1`: the cell number change was 48.3%. The AC50 under setting [2] is 0.0259 µM [rising, full curve, poor fit]. Further, the AC50 under setting [1] is 0.651 µM [rising, single point].
For the compound `O=C(Nc1ccc2c(c1)OCO2)c1ccccc1SCC(=O)N1CCCC1`, the cell number change is -3.27%.
With `CCOC(=O)CSc1nc(=O)n2ccc(C)cc2n1`, the cell number change came out at 16.5%. Further, the AC50 under setting [2] was 0.00461 µM [rising, full curve, poor fit]. Moreover, under setting [1], the AC50 is 0.00461 µM [rising, full curve, poor fit].
For `COc1ccc(NC(=O)c2[nH]ncc2[N+](=O)[O-])cc1`, the cell number change turned out to be 19.9%.
On to `Cc1ccc(-c2ccnc3nc(-n4cccc4)nn23)o1`, for which the cell number change was 14.2%. For the same compound, under setting [2], the AC50 is 0.58 µM [rising, full curve, poor fit].
Turning to `CC(C)(C)c1ccc(-n2ncc3c2CCCC3NC(=O)CN2CCOC2=O)cc1` (centres undefined), the cell number change was -42.6%. The AC50 under setting [2] was 29.1 µM [falling, single point]. The AC50 under setting [1] is 10.3 µM [falling, partial curve].
On to `COc1ccc(-c2nnn(CCC(=O)O)n2)cc1`, for which the cell number change stood at 5.77%. Also, the AC50 under setting [1] is 1.03 µM [falling, full curve, poor fit].
As to `CC(C)N(CCCNC(=O)C1CCN(C(=O)c2cc3sccc3n2C)CC1)Cc1ccccc1`, the cell number change worked out at 14.7%. Besides, under setting [1], the AC50 is 29.1 µM [rising, partial curve].
Take `COc1ccc(S(=O)(=O)NCc2cccs2)cc1`: the cell number change is -87.6%. The AC50 under setting [2] was 3.66 µM [falling, full curve].
For the compound `O=c1cc[nH]c(=O)[nH]1`, the cell number change is -21.7%. Also, the AC50 under setting [1] is 0.82 µM [falling, full curve, poor fit].
`CCOc1ccc2nc(/N=C/c3nc(-c4ccccc4)oc3O)sc2c1`: the AC50 under setting [2] was 6.51 µM [rising, single point].
As for `O=C(Nc1ccc(S(=O)(=O)N2CCCCC2)cc1)c1ccc(CN2CCOCC2)cc1`, the cell number change was -21.2%. The AC50 under setting [1] is 16.4 µM [falling, partial curve].
For the compound `O=C(CC(=O)c1ccccc1)Nc1ccc2c(c1)OCCO2`, the cell number change was -21.7%.
As to `Cc1sc2ncnc(N3CCN(Cc4ccccc4)CC3)c2c1-c1ccc(F)cc1`, the cell number change came to 19.2%. Further, the AC50 under setting [2] is 5.8 µM [rising, single point]. Moreover, the AC50 under setting [1] was 0.651 µM [rising, partial curve, poor fit].
For `Cn1ccnc1SCC(=O)Nc1cc(S(=O)(=O)N2CCOCC2)ccc1Cl`, the cell number change turned out to be 6.35%. Moreover, the AC50 under setting [1] was 0.326 µM [rising, full curve].
Regarding `Cc1ccc(S(=O)(=O)Nc2cc(C(C(=O)OC(C)C)C(=O)C(F)(F)F)c(O)c3ccccc23)c(C)c1` (centres undefined), the cell number change was -23.8%. In addition, under setting [1], the AC50 was 32.6 µM [falling, single point].
Take `CC(C)(C)OC(=O)N1CCC[C@H]1c1nnc(SCc2ccc(Cl)cc2)o1`: the cell number change is 42.7%. For the same compound, the AC50 under setting [2] was 7.31 µM [rising, partial curve, poor fit]. Further, the AC50 under setting [1] was 11.6 µM [rising, partial curve].
As to `N#CC(C#N)=NNc1ccc(S(=O)(=O)N2CCCC2)cc1`, the AC50 was 4.61 µM [rising, single point] under setting [2] and 11.6 µM [falling, partial curve] under setting [1].
For the compound `Cc1cc(Cl)c(S(=O)(=O)N2CCSCC2)cc1OCC(=O)NC1CCCCC1`, the cell number change was -11.6%. Further, the AC50 under setting [1] was 5.8 µM [rising, single point].
`Cc1cc(C(=O)Nc2cccnc2)cs1`: the cell number change was -3.81%. Under setting [2], the concentration at half-maximal activity (AC50) was 0.731 µM [falling, single point]. In addition, the AC50 under setting [1] is 0.731 µM [falling, full curve].
For the compound `COc1ccc(NC(=O)c2ccc3c(c2)C(=O)N(CC2CCCO2)C3=O)cc1O` (centres undefined), the AC50 is, setting by setting: under setting [2], 6.51 µM [falling, single point]; under setting [1], 1.84 µM [falling, partial curve].
In the case of `OC(COc1ccc2ccccc2c1)Cn1ccnc1` (centres undefined), the cell number change came out at 12.8%. Also, under setting [2], the AC50 is 0.651 µM [rising, single point].
`CCc1ccc(OCC(=O)Nc2ccc(-c3cc4ccccc4oc3=O)c(OC)c2)cc1`: the cell number change turned out to be 1.02%. Besides, the half-maximal activity concentration (AC50) under setting [1] is 5.8 µM [rising, partial curve].
For the compound `COc1cc(CNc2ccc(S(N)(=O)=O)cc2)ccc1OCC(=O)NC1CCCCC1`, the cell number change is -4.91%.
For `Nc1c(N)c2ccccc2oc1=O`, the cell number change worked out at 33%. For the same compound, the AC50 under setting [2] was 25.9 µM [rising, single point].
As to `S=c1[nH]c(-c2ccccc2)cn1/N=C/c1cccnc1`, the cell number change came out at 17.6%. The AC50 under setting [1] is 2.91 µM [rising, full curve].
Take `Cc1cc(C)c(-n2c(C)cc(/C=C3/NC(=O)NC3=O)c2C)c(C)c1`: the cell number change is -29.9%. Under setting [2], the AC50 was 0.184 µM [falling, full curve, poor fit].
In the case of `Cc1nc(N2CCC(C)CC2)c2c(C)c(C(=O)Nc3ccccc3C(F)(F)F)sc2n1`, the cell number change is -15.2%. The concentration at half-maximal activity (AC50) under setting [1] is 0.116 µM [falling, full curve].
In the case of `COc1ccc(-c2c(-c3ccccc3OC)sc3ccccc23)cc1C=O`, the cell number change worked out at 20.1%. Moreover, the half-maximal activity concentration (AC50) under setting [1] is 13 µM [rising, single point].
With `CCOc1ccc(S(=O)(=O)n2nc(C)c(S(=O)(=O)N3CCOCC3)c2C)cc1`, the cell number change is -5.65%. Further, the AC50 under setting [1] was 1.46 µM [falling, full curve, poor fit].
